Some of the results follow. Most entries show no effect beyond the scatter of the controls.
The targets below were run with Cc1nc(Nc2ncc(C(=O)Nc3c(C)cccc3Cl)s2)cc(N2CCN(CCO)CC2)n1 [dasatinib] (assay: log2 fold change of tryptic peptide abundance, ligand vs vehicle (limited proteolysis) (log2 ratio); higher = more trypsin-susceptible (destabilized)). Settings: ligand concentration: 5 uM; sample: K562 cleared lysate.

Amino acid sequences for entries named in this document (tags omitted). A change or cut given only in a name is not applied to a line headed by its entry.
UniProt Q7Z6B0: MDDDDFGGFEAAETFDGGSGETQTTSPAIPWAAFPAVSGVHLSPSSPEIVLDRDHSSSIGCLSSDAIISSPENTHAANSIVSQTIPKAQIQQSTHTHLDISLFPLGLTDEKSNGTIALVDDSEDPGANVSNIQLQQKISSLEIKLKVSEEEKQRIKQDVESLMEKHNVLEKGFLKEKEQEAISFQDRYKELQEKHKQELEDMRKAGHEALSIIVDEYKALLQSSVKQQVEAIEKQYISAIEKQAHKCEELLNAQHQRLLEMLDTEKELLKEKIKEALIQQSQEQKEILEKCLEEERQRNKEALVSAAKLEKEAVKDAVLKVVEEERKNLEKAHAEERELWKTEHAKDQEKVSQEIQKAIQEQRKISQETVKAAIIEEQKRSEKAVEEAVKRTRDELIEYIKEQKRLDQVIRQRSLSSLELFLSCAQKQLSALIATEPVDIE
UniProt Q6ZTN6: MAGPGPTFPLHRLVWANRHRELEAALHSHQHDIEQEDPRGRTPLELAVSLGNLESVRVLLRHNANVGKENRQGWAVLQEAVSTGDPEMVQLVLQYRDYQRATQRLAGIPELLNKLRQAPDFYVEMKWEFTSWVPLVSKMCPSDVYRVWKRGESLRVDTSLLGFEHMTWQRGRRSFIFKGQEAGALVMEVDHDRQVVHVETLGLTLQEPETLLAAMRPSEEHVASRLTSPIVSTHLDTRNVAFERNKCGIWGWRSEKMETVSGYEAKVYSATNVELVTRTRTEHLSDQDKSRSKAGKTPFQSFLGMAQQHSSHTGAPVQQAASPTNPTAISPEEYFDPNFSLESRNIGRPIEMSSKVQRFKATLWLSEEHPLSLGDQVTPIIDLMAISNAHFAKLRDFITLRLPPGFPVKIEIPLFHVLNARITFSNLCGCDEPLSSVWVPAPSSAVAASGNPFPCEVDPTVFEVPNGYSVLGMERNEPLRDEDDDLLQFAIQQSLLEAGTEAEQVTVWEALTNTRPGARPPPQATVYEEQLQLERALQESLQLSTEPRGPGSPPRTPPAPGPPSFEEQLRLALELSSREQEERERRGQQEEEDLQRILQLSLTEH
UniProt Q70E73: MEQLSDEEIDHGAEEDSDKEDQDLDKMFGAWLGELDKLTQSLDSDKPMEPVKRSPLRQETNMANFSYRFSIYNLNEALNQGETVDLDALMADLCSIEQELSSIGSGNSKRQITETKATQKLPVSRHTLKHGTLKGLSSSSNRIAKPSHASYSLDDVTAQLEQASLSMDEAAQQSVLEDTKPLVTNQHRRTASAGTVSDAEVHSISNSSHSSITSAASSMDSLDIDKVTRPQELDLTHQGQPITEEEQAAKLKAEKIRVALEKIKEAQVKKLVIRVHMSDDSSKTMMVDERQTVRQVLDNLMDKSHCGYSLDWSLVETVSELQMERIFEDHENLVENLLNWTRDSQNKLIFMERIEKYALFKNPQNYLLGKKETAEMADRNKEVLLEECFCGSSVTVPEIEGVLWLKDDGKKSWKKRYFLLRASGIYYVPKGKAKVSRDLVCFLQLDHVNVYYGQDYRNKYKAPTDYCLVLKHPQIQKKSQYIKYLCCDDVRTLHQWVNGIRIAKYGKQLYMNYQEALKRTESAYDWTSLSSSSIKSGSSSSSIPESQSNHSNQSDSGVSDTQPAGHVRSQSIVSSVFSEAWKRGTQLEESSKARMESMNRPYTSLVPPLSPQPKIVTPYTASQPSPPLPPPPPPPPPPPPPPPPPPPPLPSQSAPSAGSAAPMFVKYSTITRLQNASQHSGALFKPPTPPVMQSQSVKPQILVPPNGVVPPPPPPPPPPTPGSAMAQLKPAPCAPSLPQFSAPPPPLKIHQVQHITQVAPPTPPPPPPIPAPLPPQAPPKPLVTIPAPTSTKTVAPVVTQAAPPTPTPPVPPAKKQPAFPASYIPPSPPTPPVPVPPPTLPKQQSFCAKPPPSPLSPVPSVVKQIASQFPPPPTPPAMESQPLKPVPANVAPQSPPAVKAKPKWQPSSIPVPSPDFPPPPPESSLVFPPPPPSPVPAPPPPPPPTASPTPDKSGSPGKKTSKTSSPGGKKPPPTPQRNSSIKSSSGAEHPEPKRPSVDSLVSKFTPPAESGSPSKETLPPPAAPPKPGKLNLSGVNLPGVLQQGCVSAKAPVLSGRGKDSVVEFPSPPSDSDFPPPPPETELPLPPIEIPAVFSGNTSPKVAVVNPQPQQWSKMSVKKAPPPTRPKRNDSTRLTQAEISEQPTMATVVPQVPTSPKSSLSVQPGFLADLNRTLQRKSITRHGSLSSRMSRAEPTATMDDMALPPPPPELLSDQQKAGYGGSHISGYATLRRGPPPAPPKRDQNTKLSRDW
UniProt Q7L099: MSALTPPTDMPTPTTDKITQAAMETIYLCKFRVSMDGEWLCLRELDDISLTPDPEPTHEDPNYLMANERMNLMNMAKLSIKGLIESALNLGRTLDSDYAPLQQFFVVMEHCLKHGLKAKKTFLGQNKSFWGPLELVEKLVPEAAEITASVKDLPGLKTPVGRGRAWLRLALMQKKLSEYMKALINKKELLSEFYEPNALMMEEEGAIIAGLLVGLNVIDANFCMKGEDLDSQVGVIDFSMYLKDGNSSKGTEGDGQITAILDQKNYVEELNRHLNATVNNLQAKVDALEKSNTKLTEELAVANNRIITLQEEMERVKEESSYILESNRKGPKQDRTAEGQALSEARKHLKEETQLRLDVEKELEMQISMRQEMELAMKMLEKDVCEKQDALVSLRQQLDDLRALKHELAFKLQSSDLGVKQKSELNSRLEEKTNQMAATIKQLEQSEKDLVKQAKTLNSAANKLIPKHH
UniProt Q7L5N1: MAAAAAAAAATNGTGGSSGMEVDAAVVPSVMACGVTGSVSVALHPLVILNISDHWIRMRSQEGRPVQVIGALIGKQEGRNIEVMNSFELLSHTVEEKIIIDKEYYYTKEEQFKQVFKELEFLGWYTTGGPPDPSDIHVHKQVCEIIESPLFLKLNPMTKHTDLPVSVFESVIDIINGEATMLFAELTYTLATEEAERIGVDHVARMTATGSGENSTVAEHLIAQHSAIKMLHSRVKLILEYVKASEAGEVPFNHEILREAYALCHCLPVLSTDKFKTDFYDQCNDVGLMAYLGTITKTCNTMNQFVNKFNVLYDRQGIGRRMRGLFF
UniProt Q7L7X3: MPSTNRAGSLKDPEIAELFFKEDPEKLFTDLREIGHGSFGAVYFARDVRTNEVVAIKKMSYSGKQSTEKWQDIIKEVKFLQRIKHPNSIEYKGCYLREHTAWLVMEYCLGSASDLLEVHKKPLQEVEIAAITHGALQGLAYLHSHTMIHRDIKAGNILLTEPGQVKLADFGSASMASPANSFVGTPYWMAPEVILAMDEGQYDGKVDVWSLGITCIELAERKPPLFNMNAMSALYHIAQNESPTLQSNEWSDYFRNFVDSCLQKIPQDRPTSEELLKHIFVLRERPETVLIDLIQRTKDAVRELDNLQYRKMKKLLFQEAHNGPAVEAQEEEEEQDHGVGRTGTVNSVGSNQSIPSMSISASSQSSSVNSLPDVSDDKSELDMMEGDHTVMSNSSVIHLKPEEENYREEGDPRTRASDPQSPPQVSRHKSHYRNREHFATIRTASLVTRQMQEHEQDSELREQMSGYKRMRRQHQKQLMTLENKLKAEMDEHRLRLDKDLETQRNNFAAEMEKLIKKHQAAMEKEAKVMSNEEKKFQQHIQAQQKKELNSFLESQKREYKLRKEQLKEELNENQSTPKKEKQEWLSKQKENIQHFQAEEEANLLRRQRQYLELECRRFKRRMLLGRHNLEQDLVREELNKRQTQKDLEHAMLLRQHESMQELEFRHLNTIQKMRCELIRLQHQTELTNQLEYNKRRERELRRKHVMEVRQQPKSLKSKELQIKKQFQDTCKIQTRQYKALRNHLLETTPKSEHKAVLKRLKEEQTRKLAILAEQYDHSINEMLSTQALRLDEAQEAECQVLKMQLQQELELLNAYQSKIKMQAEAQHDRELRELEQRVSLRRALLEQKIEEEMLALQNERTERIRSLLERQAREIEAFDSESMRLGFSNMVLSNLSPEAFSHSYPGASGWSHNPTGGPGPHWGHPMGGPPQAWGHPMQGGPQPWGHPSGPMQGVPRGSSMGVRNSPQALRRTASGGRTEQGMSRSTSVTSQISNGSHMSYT
UniProt Q7L2H7, whole entry: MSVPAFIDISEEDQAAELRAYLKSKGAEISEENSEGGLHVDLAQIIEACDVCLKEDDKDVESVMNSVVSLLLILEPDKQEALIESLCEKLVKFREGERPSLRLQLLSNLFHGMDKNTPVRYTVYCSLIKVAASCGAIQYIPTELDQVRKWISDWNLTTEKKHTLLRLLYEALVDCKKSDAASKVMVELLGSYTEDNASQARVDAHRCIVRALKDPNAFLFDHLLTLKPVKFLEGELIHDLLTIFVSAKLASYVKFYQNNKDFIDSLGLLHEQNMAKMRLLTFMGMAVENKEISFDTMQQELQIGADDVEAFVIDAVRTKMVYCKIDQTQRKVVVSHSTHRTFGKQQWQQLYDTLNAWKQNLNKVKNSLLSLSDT
UniProt Q765P7: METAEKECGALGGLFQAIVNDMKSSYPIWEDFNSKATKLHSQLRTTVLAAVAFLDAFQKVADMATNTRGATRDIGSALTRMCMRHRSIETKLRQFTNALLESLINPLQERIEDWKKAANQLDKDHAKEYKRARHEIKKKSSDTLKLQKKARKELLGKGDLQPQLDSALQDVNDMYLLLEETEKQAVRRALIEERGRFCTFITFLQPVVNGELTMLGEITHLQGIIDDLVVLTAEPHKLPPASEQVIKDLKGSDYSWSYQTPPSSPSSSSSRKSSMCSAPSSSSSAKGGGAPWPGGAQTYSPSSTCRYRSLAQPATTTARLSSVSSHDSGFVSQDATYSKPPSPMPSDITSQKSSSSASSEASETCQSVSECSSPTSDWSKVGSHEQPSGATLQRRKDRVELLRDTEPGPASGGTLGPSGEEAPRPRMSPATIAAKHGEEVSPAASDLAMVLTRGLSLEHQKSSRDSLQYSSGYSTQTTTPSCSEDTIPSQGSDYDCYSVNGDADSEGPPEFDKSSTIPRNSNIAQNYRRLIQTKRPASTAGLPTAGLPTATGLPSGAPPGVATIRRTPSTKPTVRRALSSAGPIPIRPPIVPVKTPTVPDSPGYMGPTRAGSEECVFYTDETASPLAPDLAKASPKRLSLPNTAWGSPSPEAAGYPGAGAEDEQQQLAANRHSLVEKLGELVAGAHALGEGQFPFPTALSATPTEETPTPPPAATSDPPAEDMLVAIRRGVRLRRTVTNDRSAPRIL
UniProt Q7Z434: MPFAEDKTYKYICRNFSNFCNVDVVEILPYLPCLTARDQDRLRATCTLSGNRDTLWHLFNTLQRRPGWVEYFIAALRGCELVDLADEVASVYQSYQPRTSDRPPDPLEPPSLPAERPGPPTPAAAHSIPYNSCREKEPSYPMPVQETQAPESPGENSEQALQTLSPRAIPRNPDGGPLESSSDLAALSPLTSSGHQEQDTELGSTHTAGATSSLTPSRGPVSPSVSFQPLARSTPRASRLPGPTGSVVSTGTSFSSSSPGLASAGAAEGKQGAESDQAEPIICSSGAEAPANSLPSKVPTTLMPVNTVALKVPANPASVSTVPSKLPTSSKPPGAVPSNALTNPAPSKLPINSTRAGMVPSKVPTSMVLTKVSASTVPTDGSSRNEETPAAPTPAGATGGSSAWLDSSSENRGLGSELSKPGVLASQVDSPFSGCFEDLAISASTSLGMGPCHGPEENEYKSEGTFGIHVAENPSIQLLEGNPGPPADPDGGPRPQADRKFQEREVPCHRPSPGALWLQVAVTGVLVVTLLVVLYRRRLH
UniProt Q6ZMV9: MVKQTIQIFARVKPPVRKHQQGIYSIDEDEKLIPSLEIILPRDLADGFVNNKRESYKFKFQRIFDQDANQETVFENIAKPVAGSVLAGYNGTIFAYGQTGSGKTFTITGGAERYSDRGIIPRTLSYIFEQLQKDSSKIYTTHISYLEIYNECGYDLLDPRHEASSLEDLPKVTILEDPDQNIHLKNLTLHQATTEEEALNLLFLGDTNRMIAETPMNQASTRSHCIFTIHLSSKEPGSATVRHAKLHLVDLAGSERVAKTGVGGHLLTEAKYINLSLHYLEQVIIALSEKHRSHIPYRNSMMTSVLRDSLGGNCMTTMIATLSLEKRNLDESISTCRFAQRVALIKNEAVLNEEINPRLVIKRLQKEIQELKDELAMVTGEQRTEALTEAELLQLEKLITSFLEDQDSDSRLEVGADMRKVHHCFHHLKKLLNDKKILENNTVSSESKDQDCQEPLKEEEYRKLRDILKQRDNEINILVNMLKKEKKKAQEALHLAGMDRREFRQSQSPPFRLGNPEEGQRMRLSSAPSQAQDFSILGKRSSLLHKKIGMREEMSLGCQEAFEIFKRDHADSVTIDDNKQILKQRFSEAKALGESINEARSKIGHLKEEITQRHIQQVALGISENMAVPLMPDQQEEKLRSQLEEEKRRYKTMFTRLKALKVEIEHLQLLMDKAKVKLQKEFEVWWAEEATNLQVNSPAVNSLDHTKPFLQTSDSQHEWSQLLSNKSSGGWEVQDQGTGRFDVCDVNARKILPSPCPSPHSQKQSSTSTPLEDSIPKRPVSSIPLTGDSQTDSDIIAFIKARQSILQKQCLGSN

Target | log2 fold change
CCDC91 (peptide sequence: IKQDVESLMEKHNVLEK, peptide start residue: 155) (UniProt Q7Z6B0) | -0.462
ANKRD13D (peptide sequence: EQEERER, peptide start residue: 579) (UniProt Q6ZTN6) | -0.511
RAPH1 (peptide sequence: LPVSRHTLK, peptide start residue: 121) (UniProt Q70E73) | 0.165
RUFY3 (peptide sequence: KTFLGQNK, peptide start residue: 120) (UniProt Q7L099) | -0.421
COPS6 (peptide sequence: SQEGRPVQVIGALIGK, peptide start residue: 60) (UniProt Q7L5N1) | -0.323
UBR3 (peptide sequence: GGNLCSGGASTAGK, peptide start residue: 1467) (UniProt Q6ZT12) | 0.621
TAOK1 (peptide sequence: EIEAFDSESMR, peptide start residue: 874) (UniProt Q7L7X3) | 0.156
UniProt Q7L2H7 (peptide sequence: WISDWNLTTEKK, peptide start residue: 150) | -0.244
UniProt Q765P7 (peptide sequence: TPSTKPTVR, peptide start residue: 567) | 0.554
UniProt Q7Z434 (peptide sequence: AGMVPSKVPTSMVLTK, peptide start residue: 356) | -0.0811
UniProt Q6ZMV9 (peptide sequence: LRSQLEEEK, peptide start residue: 639) | -0.564

Reference: the supplement of paper PMC12819154, “High-throughput peptide-centric local stability assay extends protein–ligand identification to membrane proteins, tissues and bacteria” (Nature Structural & Molecular Biology, 2025)
